Some test systems named below: Trypsin-2 (human); Tryptase delta (human); UBADC1 (human); UBE1C (human); UBE1L (human); UBE2C (human); UBE2DNL (human).
Common to all, as to assay: protein microarray (ProtoArray v5.0), streptavidin-Alexa Fluor 647
Settings in all cases: 3'-biotin; 20 mM Tris (pH 7.5), 5 mM MgCl2, 100 mM KCl, 0.1% Tween-20, A/T-rich and random oligonucleotide blockers; temperature not stated; high values mean tight binding

Amino acid sequences for entries named in this document (tags omitted).
UniProt Q9GZZ9, whole entry: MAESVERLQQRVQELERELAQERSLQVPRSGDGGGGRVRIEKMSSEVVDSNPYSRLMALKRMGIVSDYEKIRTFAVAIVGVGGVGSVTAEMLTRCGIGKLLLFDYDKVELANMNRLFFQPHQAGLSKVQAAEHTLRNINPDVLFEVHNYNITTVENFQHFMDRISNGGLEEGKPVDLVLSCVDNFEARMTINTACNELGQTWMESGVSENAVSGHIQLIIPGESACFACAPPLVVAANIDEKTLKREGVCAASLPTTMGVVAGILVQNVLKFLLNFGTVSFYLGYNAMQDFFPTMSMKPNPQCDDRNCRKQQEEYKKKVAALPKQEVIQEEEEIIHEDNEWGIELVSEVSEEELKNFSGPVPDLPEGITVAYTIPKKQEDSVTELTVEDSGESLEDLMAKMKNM

For test [1], the system named is Transmembrane protein 192 (human).
The test system of test [2] is Transmembrane protein 203 (human).
The test system of test [3] is Transmembrane protein 207 (human).
Test [4] concerns Transmembrane protein 43 (human).
Test [5] concerns Transmembrane protein 86B (human).
Test [6] has as its system Tryptophanyl-tRNA synthetase, cytoplasmic (human).
Test [7] has as its system Tubulin alpha-3 chain (human).
For test [8], the system named is Tubulin-specific chaperone D (human).
Test [9] has as its system Tumor protein D52 (human).
The test system of test [10] is Tumor suppressor candidate 3 (human).
Test [11] has as its system Type I iodothyronine deiodinase (human).
Test [12] deals with Tyrosine-protein kinase transmembrane receptor ROR1 (human).
Another test has as its target UBE1DC1 (UniProt Q9GZZ9).

Several values for one entry are separate records, joined by “and”; a condition that tells them apart may be missing. Equal values may be shown once. This is one part of the list. For some assays here: The exact form of the protein is not confirmed.

Take “GGGAGGCTGAGGCAGG [G4-1 biotinylated (PQS2)]”: the binding signal in test [1] was -0.266 z-score; in test [2], -0.33 z-score; in test [3], -0.302 z-score; in [4], -0.349 z-score; in test [5], -0.339 z-score; with Trypsin-2 (human) it was -0.31 z-score. For the same sequence, the binding signal with Tryptase delta (human) was -0.315 z-score; in test [6], -0.314 z-score; in test [7], -0.305 z-score; in test [8] it was -0.353 z-score; in test [9] it was -0.352 z-score; in test [10], -0.318 z-score. Besides, the binding signal was -0.337 z-score in test [11]; -0.244 z-score in test [12]; -0.351 z-score in the test on UBADC1 (human); -0.232 z-score in the test on UBE1C (human); -0.346 z-score with UBE1DC1; -0.298 z-score with UBE1L (human). Also, the binding signal in the test with UBE2C (human) is -0.364 z-score and -0.368 z-score; with UBE2DNL (human), -0.315 z-score.
